These results are taken from publication PMC3346753.

Sequences of proteins named here, by UniProt entry; tags and fusion partners are left off.
UniProt Q9EPW2: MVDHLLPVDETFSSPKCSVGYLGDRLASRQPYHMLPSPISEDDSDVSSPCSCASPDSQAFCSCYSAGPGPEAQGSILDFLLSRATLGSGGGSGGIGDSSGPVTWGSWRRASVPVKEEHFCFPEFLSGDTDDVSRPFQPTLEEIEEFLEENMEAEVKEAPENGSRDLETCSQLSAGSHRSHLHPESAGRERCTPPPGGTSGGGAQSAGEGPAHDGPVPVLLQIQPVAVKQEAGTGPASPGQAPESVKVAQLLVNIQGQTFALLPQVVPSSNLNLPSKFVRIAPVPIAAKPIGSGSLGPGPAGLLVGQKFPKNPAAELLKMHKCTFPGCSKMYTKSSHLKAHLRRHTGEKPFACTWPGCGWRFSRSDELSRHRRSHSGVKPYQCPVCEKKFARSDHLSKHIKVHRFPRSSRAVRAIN

B1: Myocardin Related Transcription Factor A (MRTF-A), in vitro translated, 35S-labeled (protein, UniProt Q8K4J6 1-964)
chain: MTLLEPEMLMMAVQSVLQLKLQQRRTREELVSQGIMPPLKSPAAFHEQRRSLERARTEDYLKRKIRSRPERAELVRMHILEETSAEPSLQAKQLKLKRARLADDLNEKIAQRPGPMELVEKNILPVESSLKEAIIVGQVNYPKVADSSSFDEDSSDALSPEQPASHESQGSVPSPLESRVSDPLPSATSISPTQVLSQLPMAPDPGETLFLAEQPPLPPAPLLPPSLANGSIVPTAKPAPTLIKQSQPKSASEKSQRSKKAKELKPKVKKLKYHQYIPPDQKQDKGAPAMDSSYAKILQQQQLFLQLQILNQQQQQQQQQHYNYQAILPAPPKPSAETPGSSAPTPSRSLSTSSSPSSGTPGPSGLARQSSTALAAKPGALPANLDDMKVAELKQELKLRSLPVSGTKTELIERLRAYQDQVSPAPGAPKAPATTSVLSKAGEVVVAFPAALLSTGSALVTAGLAPAEMVVATVTSNGMVKFGSTGSTPPVSPTPSERSLLSTGDENSTPGDAFGEMVTSPLTQLTLQASPLQIVKEEGARAASCCLSPGARAELEGLDKDQMLQEKDKQIEELTRMLQQKQQLVELLRLQLEQQKRAQQPAPASSPVKRESGFSSCQLSCQPQGSAHAFGSGLVVPTTNHGDTQAPAPESPPVVVKQEAGPPEPDLAPSSQLLLGSQGTSFLKRVSPPTLVTDSTGTHLILTVTNKSADGPGLPAGSPQQPLSQPGSPAPGPPAQMDLEHPPQPPFATPTSLLKKEPPGYEETVTQQPKQQENGSSSQHMDDLFDILIQSGEISADFKEPPSLPGKEKSPPAAAAYGPPLTPQPSPLSELPQAAPPPGSPTLPGRLEDFLESSTGLPLLTSGHEGPEPLSLIDDLHSQMLSSSAILDHPPSPMDTSELHFAPEPSSGMGLDLAVGHLDSMDWLELSSGGPVLSLAPLSTAAPSLFSMDFLDGHDLQLHWDSCL
modifications: 35S methionine label
B2: Myocardin Related Transcription Factor B (MRTF-B), in vitro translated, 35S-labeled (protein, UniProt P59759 1-1080)
chain: MIDSSKKQPQGFPEILTAEDFEPFKEKECLEGSNQKSLKEVLQLRLQQRRTREQLVDQGIMPPLKSPAAFHEQIKSLERARTENFLKHKIRSRPDRSELVRMHILEETFAEPSLQATQMKLKRARLADDLNEKIAQRPGPMELVEKNILPVDSSVKEAIIGVVKEDYPHTHGEFSFDEDSSDALSPDQPASQESQGSAASPSEPKVSASPPPVTASTPAQFTSVSPAVPEFLKTPLTADQPPTRSTAPVLPTNTVSSAKSGPMLVKQSHPKNPNDKHRSKKCKDPKPRVKKLKYHQYIPPNQKGEKSEPQMDSNYARLLQQQQLFLQLQILSQQQQQQQQQHYNYQTILPAPIKTDKNSSSGSNSGSSSSMPARRPGPLPSSLDDLKVSELKTELKLRGLPVSGTKPDLIERLKPYQEVTSSNLATGSIVAVSSATIVTSNPEVTVALPVTTLHNAVTSSVSTFKADLALPATSSVPHVENAHSPLPISPSPSEQSSLSTDDTNMTDTFTEIMTMMSPSQLLCSSPLRVVSHDDSLSPSSSTLSTLELDAAEKDRKLQEKEKQIEELKRKLEQEQKLVEVLKMQLEVEKRGQQRPPDPQPSDPPHPFNTSDPKHGSVGSSIKDEASLPDCSSPQQPITVPGHSVGQPISTGSQTLVAKKTVVVKQEVPMAQAEQQNVVSQFYLSSQGQPPALVAQPQALLTTQTTQLLLPVSIQGSNVTSVQLPVGSLQLQTPAQGRVQAQPHVAAATQVPAAALPSALTSALPQKQEAFPQHVLGQPQPVRKVFTNSAPNTVLQYQRQPGPTNQQPFVSKTSNPALQSRTAPLAPLQNGPSLASKPSSPPPPQQFVVQHSLFATPITKTKDPPRYEEAIKQTRSTQPALPEVSSVHSQQMDDLFDILIKSGEISFPIKEEPSPISKMKPVTASITTMPVNTVVSRPPPQVQIAPPVSLEPVNSLSASLENQLEAFLDGTLPSATDTGPLQNSSEDRESFSLIEDLQNDLLSHSSMLYQSHSPMETSEAQLVSGTPCLSLDLSDSNLDNMEWLDITMPTTSSGLTPLSTTAPSMFSADFLDPQDLPLPWD
modifications: 35S methionine label
B3: serum response factor (SRF), in vitro translated, 35S labeled (protein, UniProt P11831 1-508)
chain: MLPTQAGAAAALGRGSALGGSLNRTPTGRPGGGGGTRGANGGRVPGNGAGLGPGRLEREAAAAAATTPAPTAGALYSGSEGDSESGEEEELGAERRGLKRSLSEMEIGMVVGGPEASAAATGGYGPVSGAVSGAKPGKKTRGRVKIKMEFIDNKLRRYTTFSKRKTGIMKKAYELSTLTGTQVLLLVASETGHVYTFATRKLQPMITSETGKALIQTCLNSPDSPPRSDPTTDQRMSATGFEETDLTYQVSESDSSGETKDTLKPAFTVTNLPGTTSTIQTAPSTSTTMQVSSGPSFPITNYLAPVSASVSPSAVSSANGTVLKSTGSGPVSSGGLMQLPTSFTLMPGGAVAQQVPVQAIQVHQAPQQASPSRDSSTDLTQTSSSGTVTLPATIMTSSVPTTVGGHMMYPSPHAVMYAPTSGLGDGSLTVLNAFSQAPSTMQVSHSQVQEPGGVPQVFLTASSGTVQIPVSAVQLHQMAVIGQQAGSSSNLTELQVVNLDTAHSTKSE
modifications: 35S methionine label

Results are given in words; binding and its absence hold for the method and conditions named. In cells and extracts the contact can be indirect. Some results given as binding are weak or reduced against the parent protein; the word gives no strength.

This test concerns the target GST-KLF15 fusion protein (mouse) (UniProt Q9EPW2). Description: pull-down; GST-KLF15 bound to Glutathione Sepharose 4B beads as bait; in vitro translated 35S-labelled proteins (TNT quick coupled system) assayed for binding; only the target purified.
With B1, the binding entry is on record as “binds”.

For B2, the binding entry is listed as “binds”. For B3 the value was “no binding”.
